Results are given in words; binding and its absence hold for the method and conditions named. In cells and extracts the contact can be indirect. Where a sequence is shown, tags or fusion partners need not be part of it.
Biological target: Purified GST (glutathione S-transferase)
Test: pull-down; GST pull-down as described (Poon et al., 2004); GST fusion proteins purified on glutathione sepharose beads as bait, HA-Pdzd2(C) as prey

B1: haemagglutinin (HA)-tagged rat Pdzd2 C-terminal fragment (201aa), GFP-fused (domain or fragment, UniProt Q9QZR8 2567-2766)
chain: GGADVEPKSVMVHRVFSQGVASQEGTVSRGDFLLSVNGTSLAGLAHSEVTKVLHQAELHKHALMIIKKGNDQPGPSFKQEPPSANGKGPFPRRTLPLEPGAGRNGAAHDALCVEVLKTSAGLGLSLDGGKSSVSGEGPLVIKRVYKGGAAERAGTIEAGDEILAINGKPLVGLVHFDAWNIMKSVPEGPVQLVIRKHRDS
  binding: no binding

Source: PMC2764382
